Test results as given in PMC10179560.
These are yes or no findings as the source states them, for the method shown. In cells and extracts the contact can be indirect. Some results given as binding are weak or reduced against the parent protein; the word gives no strength.

Protein sequences, listed by entry. Tags and fused reporters are not part of them.
UniProt D3ZNT6: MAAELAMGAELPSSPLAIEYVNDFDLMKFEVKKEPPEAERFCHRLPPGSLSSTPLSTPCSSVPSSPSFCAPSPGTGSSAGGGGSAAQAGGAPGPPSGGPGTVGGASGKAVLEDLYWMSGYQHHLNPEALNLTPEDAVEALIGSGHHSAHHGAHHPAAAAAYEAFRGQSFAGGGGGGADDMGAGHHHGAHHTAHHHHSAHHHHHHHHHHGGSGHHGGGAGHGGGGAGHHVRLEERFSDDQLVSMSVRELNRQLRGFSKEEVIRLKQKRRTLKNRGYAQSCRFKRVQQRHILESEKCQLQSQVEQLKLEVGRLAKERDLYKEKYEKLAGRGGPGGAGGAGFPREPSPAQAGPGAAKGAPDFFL
UniProt Q64289: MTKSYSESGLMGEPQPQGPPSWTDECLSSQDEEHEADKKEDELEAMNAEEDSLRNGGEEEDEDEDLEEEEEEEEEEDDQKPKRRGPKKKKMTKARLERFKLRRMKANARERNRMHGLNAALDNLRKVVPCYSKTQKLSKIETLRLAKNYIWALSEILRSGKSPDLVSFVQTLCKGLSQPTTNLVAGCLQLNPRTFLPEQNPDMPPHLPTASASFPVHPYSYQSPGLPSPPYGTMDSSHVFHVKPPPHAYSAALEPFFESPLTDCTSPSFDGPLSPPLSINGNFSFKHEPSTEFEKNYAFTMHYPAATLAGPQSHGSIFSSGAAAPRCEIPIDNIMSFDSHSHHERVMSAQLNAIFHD
UniProt P52947: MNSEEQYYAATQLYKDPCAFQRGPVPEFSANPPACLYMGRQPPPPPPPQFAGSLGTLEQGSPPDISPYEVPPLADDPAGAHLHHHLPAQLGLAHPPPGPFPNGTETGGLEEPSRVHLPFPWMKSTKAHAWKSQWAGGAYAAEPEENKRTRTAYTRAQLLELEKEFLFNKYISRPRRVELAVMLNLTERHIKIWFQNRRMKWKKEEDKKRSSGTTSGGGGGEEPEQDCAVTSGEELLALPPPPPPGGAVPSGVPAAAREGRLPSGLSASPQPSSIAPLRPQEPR

Target: T1, PIMT (PRIP-Interacting protein with Methyl Transferase activity) (rat (endogenous in BRIN-BD11)) (UniProt P85107)
T1 sequence: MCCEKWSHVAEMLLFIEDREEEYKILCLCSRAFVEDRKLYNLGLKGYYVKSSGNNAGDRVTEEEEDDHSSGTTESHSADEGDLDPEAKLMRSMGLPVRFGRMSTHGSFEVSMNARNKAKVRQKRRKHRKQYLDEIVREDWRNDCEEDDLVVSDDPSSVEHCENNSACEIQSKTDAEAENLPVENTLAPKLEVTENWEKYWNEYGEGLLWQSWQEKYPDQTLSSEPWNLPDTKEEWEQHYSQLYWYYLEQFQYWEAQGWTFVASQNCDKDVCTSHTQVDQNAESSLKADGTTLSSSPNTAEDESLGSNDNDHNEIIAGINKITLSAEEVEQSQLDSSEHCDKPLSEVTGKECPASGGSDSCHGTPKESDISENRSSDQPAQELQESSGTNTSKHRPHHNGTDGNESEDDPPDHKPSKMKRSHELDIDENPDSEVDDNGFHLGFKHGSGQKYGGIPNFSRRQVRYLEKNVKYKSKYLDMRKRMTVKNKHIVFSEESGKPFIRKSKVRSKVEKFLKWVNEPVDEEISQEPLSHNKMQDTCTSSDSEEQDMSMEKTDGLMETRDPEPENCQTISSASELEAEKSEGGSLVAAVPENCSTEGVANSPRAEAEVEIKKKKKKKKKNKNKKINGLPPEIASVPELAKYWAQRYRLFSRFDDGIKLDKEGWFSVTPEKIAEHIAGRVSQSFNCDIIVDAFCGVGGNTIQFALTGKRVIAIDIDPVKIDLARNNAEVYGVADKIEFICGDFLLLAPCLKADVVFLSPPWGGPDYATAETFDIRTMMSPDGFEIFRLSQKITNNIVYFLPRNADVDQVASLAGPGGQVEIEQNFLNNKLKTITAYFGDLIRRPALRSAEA
Test: co-IP; precleared 500 ug BRIN-BD11 cell lysate incubated with PIMT antibody (4 ug) overnight at 4 C; beads washed with lysis buffer; precipitates blotted with the indicated antibodies; basal (untreated) cells

binding	Substance
binds	MafA (MAF bZIP transcription factor A) (from UniProt D3ZNT6 1-361)
no binding	NeuroD1 (neuronal differentiation 1) (from UniProt Q64289 1-357)
binds	PDX1 (pancreatic and duodenal homeobox 1) (from UniProt P52947 1-283)
